Reference: PubChem BioAssay AID1259254 (NCATS, 2017)
The whole screen tested about 59,000 reagents; this is an unselected part. About 1,550 of all reagents (2.6%) count as active. 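G2 share is only a proxy for re-replication; each gene was hit by three separate siRNAs, and active genes were retested.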 The numbers tell different reagents against one gene apart. Not all columns of the deposit are shown. The record does not give: the amount of reagent.

Screen: 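Finding genes that stop cells copying their DNA twice in one cycle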 (primary screen)
Cells: human HCT116 colorectal cancer cells
Reagents: single siRNA against human genes
Time to read-out: 3 days
Measured: 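Imaged Hoechst DNA stain sorts each cell into a cycle phase by DNA amount; per plate, G2 fraction set to 0% for non-targeting and 100% for GMNN siRNA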
Reading the numbers: G2 robust z-score: higher = more G2 cells, more excess DNA replication
Active means: 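An siRNA counts as active if its G2 robust z-score lies at least 5 MADs above the screen median; here such calls match roughly 38% of GMNN control or more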

target	reagent	G2 robust z-score	call
MED29	1	-0.618	inactive
MED29	2	1.21	inactive
MED29	3	-0.713	inactive
SMG9	1	-0.0425	inactive
SMG9	2	-0.564	inactive
SMG9	3	-0.405	inactive
ATP23	1	-0.593	inactive
ATP23	2	-0.859	inactive
ATP23	3	-0.702	inactive
C21orf91	1	0.28	inactive
C21orf91	2	-0.159	inactive
C21orf91	3	0.0185	inactive
ZFYVE16	1	0.0926	inactive
ZFYVE16	2	-1.02	inactive
ZFYVE16	3	0.688	inactive
TFEC	1	-1.43	inactive
TFEC	2	0.0863	inactive
TFEC	3	-0.254	inactive

Laid out differently: 3 of the entries above.
target,reagent,G2 robust z-score,call
MED29,3,-0.713,inactive
SMG9,1,-0.0425,inactive
SMG9,2,-0.564,inactive

More reagents follow.
target	reagent	G2 robust z-score	call
E2F7	1	0.143	inactive
E2F7	2	0.329	inactive
E2F7	3	0.0211	inactive
PCDHB2	1	0.154	inactive
PCDHB2	2	-1.33	inactive
PCDHB2	3	0.121	inactive
BRINP3	1	-0.61	inactive
BRINP3	2	-0.266	inactive
BRINP3	3	-0.0975	inactive
FLVCR1	1	1.34	inactive
FLVCR1	2	1.05	inactive
FLVCR1	3	-1.51	inactive
